Here are results for seven substances from paper PMC7526551 (JCI Insight, 2020).

Amino acid sequences for entries named in this document (tags omitted). Residues count along the entry.
UniProt O00505: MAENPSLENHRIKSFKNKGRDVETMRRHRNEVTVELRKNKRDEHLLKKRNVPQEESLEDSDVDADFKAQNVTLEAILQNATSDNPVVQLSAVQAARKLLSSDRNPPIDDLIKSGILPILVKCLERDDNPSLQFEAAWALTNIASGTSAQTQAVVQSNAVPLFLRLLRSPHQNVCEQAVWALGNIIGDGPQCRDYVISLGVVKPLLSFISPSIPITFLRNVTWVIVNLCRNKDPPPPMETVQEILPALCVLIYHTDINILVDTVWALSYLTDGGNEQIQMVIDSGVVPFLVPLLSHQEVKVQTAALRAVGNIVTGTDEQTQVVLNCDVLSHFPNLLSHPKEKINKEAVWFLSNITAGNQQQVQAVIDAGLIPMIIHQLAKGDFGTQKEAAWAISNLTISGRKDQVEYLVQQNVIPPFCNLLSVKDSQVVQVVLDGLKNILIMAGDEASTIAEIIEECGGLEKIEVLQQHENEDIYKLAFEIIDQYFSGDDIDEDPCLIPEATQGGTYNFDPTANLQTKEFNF
UniProt P49792: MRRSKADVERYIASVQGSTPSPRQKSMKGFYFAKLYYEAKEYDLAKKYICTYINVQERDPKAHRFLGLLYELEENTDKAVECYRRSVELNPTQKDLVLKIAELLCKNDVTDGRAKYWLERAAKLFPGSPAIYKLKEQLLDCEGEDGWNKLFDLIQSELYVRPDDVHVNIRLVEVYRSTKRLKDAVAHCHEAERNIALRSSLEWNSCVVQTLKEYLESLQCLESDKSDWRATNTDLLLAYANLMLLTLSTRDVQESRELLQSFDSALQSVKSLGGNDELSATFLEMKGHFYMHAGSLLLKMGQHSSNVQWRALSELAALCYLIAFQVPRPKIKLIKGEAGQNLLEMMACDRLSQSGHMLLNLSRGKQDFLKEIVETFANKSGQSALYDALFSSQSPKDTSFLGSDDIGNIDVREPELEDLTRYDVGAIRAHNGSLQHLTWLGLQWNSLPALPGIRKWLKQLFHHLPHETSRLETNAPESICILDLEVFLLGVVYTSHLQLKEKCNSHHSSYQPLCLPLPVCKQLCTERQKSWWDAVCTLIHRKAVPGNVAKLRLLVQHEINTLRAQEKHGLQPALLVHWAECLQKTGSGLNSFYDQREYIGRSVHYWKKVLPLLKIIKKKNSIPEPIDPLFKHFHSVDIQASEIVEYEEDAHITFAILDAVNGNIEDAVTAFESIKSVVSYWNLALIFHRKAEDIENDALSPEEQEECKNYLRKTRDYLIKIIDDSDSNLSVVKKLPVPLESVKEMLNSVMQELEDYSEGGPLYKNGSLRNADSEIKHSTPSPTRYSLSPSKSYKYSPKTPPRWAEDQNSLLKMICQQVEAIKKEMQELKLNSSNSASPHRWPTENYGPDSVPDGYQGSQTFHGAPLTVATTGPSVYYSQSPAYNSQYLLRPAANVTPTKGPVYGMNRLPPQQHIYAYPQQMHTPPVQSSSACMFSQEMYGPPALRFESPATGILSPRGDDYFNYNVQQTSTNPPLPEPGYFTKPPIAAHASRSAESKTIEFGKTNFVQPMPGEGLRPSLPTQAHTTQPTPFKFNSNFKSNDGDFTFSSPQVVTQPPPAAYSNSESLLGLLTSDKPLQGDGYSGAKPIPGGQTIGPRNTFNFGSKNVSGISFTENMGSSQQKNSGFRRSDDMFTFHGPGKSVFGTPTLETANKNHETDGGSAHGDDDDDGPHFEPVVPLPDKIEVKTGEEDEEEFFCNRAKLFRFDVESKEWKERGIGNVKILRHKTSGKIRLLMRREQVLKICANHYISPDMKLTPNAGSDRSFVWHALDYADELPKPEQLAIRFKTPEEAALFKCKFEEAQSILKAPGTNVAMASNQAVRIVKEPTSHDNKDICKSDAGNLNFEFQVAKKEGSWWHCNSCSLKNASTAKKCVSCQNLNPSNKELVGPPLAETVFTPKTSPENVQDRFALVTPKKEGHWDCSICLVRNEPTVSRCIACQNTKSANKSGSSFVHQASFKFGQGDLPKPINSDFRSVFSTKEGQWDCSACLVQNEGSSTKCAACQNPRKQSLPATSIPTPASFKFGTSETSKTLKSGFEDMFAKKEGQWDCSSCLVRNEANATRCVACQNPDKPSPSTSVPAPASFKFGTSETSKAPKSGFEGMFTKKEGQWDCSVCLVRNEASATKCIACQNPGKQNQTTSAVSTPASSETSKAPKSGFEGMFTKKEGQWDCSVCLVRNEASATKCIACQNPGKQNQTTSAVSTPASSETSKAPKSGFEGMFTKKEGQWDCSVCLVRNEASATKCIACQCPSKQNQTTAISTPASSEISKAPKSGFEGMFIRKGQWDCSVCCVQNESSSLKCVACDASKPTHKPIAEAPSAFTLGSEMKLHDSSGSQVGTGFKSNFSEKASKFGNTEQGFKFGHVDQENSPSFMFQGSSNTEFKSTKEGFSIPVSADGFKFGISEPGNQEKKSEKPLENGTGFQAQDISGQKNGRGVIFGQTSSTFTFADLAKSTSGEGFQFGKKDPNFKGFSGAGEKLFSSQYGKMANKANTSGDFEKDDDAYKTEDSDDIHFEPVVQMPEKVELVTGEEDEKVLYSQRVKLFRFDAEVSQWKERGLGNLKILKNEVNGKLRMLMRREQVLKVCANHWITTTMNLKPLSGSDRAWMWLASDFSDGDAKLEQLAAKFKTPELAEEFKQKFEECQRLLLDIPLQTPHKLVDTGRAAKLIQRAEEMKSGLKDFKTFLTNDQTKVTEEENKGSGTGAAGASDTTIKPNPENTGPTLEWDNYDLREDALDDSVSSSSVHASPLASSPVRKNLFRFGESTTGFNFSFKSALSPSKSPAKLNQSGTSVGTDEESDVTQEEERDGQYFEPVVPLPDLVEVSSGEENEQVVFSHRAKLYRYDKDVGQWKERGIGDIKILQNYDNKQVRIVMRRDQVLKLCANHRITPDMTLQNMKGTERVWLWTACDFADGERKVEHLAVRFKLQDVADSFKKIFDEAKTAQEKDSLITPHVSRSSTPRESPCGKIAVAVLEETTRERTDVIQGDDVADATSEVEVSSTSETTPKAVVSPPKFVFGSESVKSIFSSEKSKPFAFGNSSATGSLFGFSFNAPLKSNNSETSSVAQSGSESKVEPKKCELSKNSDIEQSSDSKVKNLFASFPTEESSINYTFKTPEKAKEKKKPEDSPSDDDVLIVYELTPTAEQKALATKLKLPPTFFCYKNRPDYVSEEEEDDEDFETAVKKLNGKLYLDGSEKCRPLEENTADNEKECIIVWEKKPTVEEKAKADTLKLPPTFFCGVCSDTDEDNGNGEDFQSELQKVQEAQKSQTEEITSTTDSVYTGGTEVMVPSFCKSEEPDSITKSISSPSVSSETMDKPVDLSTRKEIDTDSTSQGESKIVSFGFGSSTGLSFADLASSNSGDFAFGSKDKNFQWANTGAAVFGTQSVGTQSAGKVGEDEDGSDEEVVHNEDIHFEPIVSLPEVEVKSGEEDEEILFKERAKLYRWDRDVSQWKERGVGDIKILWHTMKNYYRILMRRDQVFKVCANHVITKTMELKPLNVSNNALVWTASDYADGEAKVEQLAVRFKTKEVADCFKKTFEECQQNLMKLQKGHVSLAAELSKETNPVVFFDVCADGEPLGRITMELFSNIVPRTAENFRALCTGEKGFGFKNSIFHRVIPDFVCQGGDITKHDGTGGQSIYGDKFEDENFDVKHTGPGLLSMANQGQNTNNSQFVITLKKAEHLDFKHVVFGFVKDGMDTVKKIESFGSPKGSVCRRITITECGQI
UniProt P63165, residues 1-97: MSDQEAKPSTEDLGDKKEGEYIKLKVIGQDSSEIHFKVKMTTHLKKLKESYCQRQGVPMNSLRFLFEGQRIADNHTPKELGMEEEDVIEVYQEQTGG
UniProt P52294: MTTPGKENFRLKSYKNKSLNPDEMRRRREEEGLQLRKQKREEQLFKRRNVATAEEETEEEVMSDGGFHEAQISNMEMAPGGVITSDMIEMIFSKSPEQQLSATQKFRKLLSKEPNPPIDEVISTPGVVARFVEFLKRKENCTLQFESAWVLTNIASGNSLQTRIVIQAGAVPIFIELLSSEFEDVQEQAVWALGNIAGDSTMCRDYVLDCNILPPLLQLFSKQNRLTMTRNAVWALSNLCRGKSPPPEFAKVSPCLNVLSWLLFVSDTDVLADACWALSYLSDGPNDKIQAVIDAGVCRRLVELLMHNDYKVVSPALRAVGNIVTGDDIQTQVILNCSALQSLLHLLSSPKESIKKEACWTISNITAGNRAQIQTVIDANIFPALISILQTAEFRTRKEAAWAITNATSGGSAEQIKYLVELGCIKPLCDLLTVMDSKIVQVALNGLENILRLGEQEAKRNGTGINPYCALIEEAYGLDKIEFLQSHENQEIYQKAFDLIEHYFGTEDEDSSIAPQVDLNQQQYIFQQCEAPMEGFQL
UniProt O00629: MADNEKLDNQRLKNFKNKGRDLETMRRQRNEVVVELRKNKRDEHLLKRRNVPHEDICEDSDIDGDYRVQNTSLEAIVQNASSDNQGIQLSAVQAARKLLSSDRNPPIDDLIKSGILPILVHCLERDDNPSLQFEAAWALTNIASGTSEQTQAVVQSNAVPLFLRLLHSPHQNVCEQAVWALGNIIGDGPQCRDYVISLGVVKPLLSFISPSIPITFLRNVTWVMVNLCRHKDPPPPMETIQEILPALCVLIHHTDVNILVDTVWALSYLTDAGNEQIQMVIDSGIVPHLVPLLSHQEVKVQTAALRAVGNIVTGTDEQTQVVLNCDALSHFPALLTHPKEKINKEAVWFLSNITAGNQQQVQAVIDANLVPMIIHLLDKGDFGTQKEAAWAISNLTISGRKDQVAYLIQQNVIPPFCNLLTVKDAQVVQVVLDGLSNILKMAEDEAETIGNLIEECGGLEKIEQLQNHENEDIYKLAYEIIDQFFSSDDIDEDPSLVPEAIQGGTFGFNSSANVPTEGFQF
UniProt P63279: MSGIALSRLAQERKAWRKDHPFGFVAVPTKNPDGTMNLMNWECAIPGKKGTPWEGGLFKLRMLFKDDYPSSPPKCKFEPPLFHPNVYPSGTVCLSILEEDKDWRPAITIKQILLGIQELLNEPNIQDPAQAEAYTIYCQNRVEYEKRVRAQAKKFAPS

These are yes or no findings as the source states them, for the method shown. Binding seen in cells or lysates may run through a third protein. Here binding means that the protein was enriched with, or labelled near, the bait; the list need not be complete. Sequences can lack the tags named with a protein.

This assay has as its target T1, Flag-tagged NUPR1 fusion protein (Nuclear Protein 1) (UniProt O60356).
T1 sequence: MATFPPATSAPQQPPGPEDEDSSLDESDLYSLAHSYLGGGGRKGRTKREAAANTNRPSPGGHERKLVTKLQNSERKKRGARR
Put plainly: affinity purification with mass spectrometry; lysate of MiaPaCa-2 cells expressing Flag-NUPR1 (or Flag-GFP), HEPES-based lysis buffer with 10 mM NEM; anti-Flag M2 beads 2 h at 4°C, Flag peptide elution, trypsin digestion, LC-MS/MS.
Take KPNA3 (from UniProt O00505 1-521): the binding entry is reported as “binds”.

Take “RANBP2 (a major SUMO E3 ligase) (from UniProt P49792 1-3224) (enzyme)”: the binding entry is on record as “binds”.

Regarding SUMO1 (from UniProt P63165 1-97), the binding result is listed as “binds”.

Take KPNA1 (from UniProt P52294 1-538): the binding result was “binds”.

For KPNA6 (from UniProt O60684 1-536), the binding entry was “binds”.

Regarding “KPNA4 (endogenous) (from UniProt O00629 1-521)”, the binding result is “binds”.

Regarding “UBC9 (the main SUMO conjugating enzyme) (from UniProt P63279 1-158)”, the binding result is “binds”.
